Results taken from PubChem BioAssay AID590 (National Center for Advancing Translational Sciences (NCATS), 2007).
Screen size: about 59,000 compounds; about 6,500 (11%) were called active. The shares of active, inactive and inconclusive entries below differ from those in the screen. No stated cut-off is given here; in the data, active means max dye-equivalent concentration above about 10 nM; inconclusive means mostly about 1.1 nM to 9.6 nM; inactive means weaker than that.

assay: qHTS Assay for Spectroscopic Profiling in A350 Spectral Region; conditions: Compound autofluorescence, 340/450 nm, Alexa 350 dye-equivalents; active compounds read high

Compound	max dye-equivalent concentration
CCn1c2ccccc2c2cc(NC(=O)CSc3nnnn3-c3ccccc3)ccc21	inconclusive: 1.5 nM
Cc1ccc2nc(C3CCCN(C(=O)NCc4ccccc4)C3)[nH]c2c1 (stereo not given)	inconclusive: 1.2 nM
O=C(O)CCCCCC[C@@H]1C(=O)NC(=O)N1CC[C@@H](O)C1CCCCC1	inconclusive: 5 nM
Cc1c(Br)cc(C(=O)O)c(C)c1C	inconclusive: 1.2 nM
CC1CN(CC(=O)N2CCc3[nH]c4ccccc4c3C2)CC(C)O1 (stereo not given)	inconclusive: 1.8 nM
CCOC(=O)c1c(N)sc(=S)c2c1CCC2	inconclusive: 2.6 nM
O=C(c1csnn1)N1CCC2(CC1)CN(Cc1cc(C(F)(F)F)cc(C(F)(F)F)c1)C2	inactive
O=C1OC(N2CCN(C(=O)c3ccco3)CC2)c2ccccc21 (stereo not given)	inconclusive: 1.5 nM
CCOC(=O)N1CCC(c2[nH][nH]c(=O)c2C)CC1	inconclusive: 7.8 nM
Cc1ccc2nc(NCCCN3CCOCC3)c(C=NCCCN3CCOCC3)c(=O)n2c1	active: 140 nM
CC(C)c1nc(N2CCN(C(=O)c3ccccc3)CC2)c(C#N)c2c1COC(C)(C)C2	active: 48 nM
CN(C/C(O)=C(\C#N)c1ccccc1)C1CCCCC1	inconclusive: 1.2 nM
CC1(C)CC2CC(C)(CN2C(=O)c2cccs2)C1 (stereo not given)	inconclusive: 1.5 nM
CC1=C(C(=O)Nc2ccccc2)C(c2ccc(C)o2)n2c(s/c(=C\c3ccco3)c2=O)=N1 (stereo not given)	inactive
CCOC(=O)CC(=O)CSc1nc(-c2cccnc2)ccc1C#N	active: 100 nM
COc1ccc(C(CNC(=O)c2cccc(N(C)C)c2)N2CCCC2)cc1 (stereo not given)	inconclusive: 4.2 nM
COc1ccc(NC(=O)c2oc3cc(C)c(C)cc3c2C)c(OC)c1	active: 200 nM
COC(=O)c1ccccc1NC(=O)CSc1n[nH]c(CC(C)C)n1	active: 30 nM
CN(C)c1nc(-c2ccccc2C(F)(F)F)nc2ccccc12	inactive
CCCCn1c(SCC(=O)c2cc(OC)ccc2OC)nc2cc(S(N)(=O)=O)ccc21	active: 36 nM
COc1ccc(S(=O)(=O)NCC(=O)N(CC(=O)NCC2CCCO2)c2cc(C)ccc2C)cc1 (stereo not given)	inactive
O=C(NCc1ccco1)c1nc(-c2ccccc2)n(-c2ccccc2)n1	inconclusive: 1.2 nM
Cc1cc(C)c2[nH]c(=O)c(C(c3nnnn3C3CCCC3)N3CCOCC3)cc2c1 (stereo not given)	active: 43 nM

A stretch from the list above:
Compound	max dye-equivalent concentration
COC(=O)c1ccccc1NC(=O)CSc1n[nH]c(CC(C)C)n1	active: 30 nM
CN(C)c1nc(-c2ccccc2C(F)(F)F)nc2ccccc12	inactive
CCCCn1c(SCC(=O)c2cc(OC)ccc2OC)nc2cc(S(N)(=O)=O)ccc21	active: 36 nM

(further entries)

Compound	max dye-equivalent concentration
O=C(CSc1nc(O)c(C2CCCCC2)c(=O)[nH]1)Nc1ccc(Cl)cc1	inactive
CCS(=O)(=O)NCc1ccc2[nH]c3c(c2c1)CCCC3	inconclusive: 6.5 nM
CSc1nc2nc(C)cc(-c3ccccc3)n2n1	inconclusive: 1.9 nM
O=S(=O)(Nc1ccc(C(F)(F)F)cc1)c1cnc[nH]1	inactive
Brc1ccc(-c2nn3c(-c4ccccn4)nnc3s2)o1	inconclusive: 3.8 nM
COc1ccc(NC(=O)c2oc3ccccc3c2NC(=O)C2CC2)cc1	active: 110 nM
CCC1SC2=NCCN2C1(O)c1ccc(Cl)cc1 (stereo not given)	inactive
COCCn1c(=O)c(-c2ccc(F)cc2)nc2cnc(Oc3ccccc3)nc21	inconclusive: 1.7 nM
CN1CCN(c2nc(NCCOC34CC5CC(CC(C5)C3)C4)nc(OCC(F)(F)F)n2)CC1	inconclusive: 1.2 nM
O=S(=O)(O)c1nc2ccccc2n1Cc1ccc(Cl)cc1	inconclusive: 2.1 nM
CC(C)OC(=O)c1sc2nc3c(cc2c1N)C(=O)CCC3	inconclusive: 4.1 nM
CC(=O)c1c(C(C)=O)c(C)n(NC(=O)c2ccccc2O)c1C	active: 13 nM
COc1cccc(Cn2c(=O)c(CCc3ccccc3)nc3cnc(OC)nc32)c1	inconclusive: 8.6 nM
CCOC(=O)CC(=O)CSc1nc2c(sc(=S)n2-c2ccccc2)c(=O)[nH]1	inconclusive: 3.6 nM
CN=C1c2c(-c3ccccc3)c3cc(OC)ccc3n2CCN1C	inconclusive: 6.8 nM
CN(C)c1ncc2nc(-c3cccs3)c(=O)n(C[C@H]3CCCO3)c2n1	inconclusive: 1.1 nM
CC(=O)COc1ccc2c3c(c(=O)oc2c1C)CCCCC3	active: 80 nM
CCCCCNC(=O)c1ccc2c(=O)n(CC3CCCO3)c(=O)[nH]c2c1 (stereo not given)	active: 22 nM
C=CCn1c(N)c(C(=O)OCC(C)C)c2nc3ccccc3nc21	active: 4500 nM
COCCCNC(=O)CCCn1c(=O)[nH]c2ccccc2c1=O	inconclusive: 2.8 nM
COCCn1c(=O)c(-c2cccs2)nc2cnc(N3CCOCC3)nc21	inconclusive: 1.2 nM
CC(CN1CCCCC1)OC(=O)c1ccc(Cl)cc1Cl (stereo not given)	inconclusive: 1.8 nM
